Measured values from publication PMC10349855, “Structural basis for specific RNA recognition by the alternative splicing factor RBM5”.
For part of these data: The comparison behind a weaker result is the experiment's own reference, which may not be listed here. Protein sequences can lack the tags named with them. For part of these data: The exact form of at least one protein or probe is not confirmed. For part of these data: At least one verdict was read from the data and is not stated in words by the source.

Assays:
[1] = target: T1, RBM5 RRM1-ZnF1S I107T,C191G (Homo sapiens) (UniProt P52756); test: structure; details: Zn; purified recombinant protein; residues 94-210; variant of GGCU_12
T1 sequence (looked up): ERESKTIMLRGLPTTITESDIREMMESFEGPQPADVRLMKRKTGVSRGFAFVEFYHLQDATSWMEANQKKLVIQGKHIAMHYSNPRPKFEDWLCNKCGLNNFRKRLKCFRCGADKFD

[2] = target: T2, RBM5 RRM1 (human) (UniProt P52756); test: NMR; details: protein:RNA 1:1; NMR: 20 mM MES pH 6.5, 100 mM (single RRMs) or 400 mM (multidomain) NaCl, 1 mM DTT, 298 K; recombinant protein; residues 94-184; protein details: His-Trx tag, TEV site (cleaved)
T2 sequence (looked up): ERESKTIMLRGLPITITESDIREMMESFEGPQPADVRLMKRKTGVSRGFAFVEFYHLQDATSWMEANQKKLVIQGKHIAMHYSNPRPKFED

[3] = target: T3, RBM5 L1-RRM2 (Homo sapiens) (UniProt P52756); test: NMR; details: 20 mM MES pH 6.5, 100 mM NaCl, 1 mM DTT, 25 C; protein 0.1-0.2 mM; purified recombinant protein
T3 sequence (looked up, limits assumed): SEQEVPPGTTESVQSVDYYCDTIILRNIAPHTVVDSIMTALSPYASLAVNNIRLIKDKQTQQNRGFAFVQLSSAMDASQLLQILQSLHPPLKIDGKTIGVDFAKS

UGGCUCUUCU [GGCU_10]
binding result [1]: binds

UCUCUUCUC [CU_9]
binding result [2]: binds

UGGCUCUUCUCU [GGCU_12]
binding result [3]: binds more weakly
